# Results from one PubChem assay

From PubChem BioAssay record AID1159506 (NCATS, 2015).

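Luminescence from an EWS-FLI1 target-promoter (NR0B1) reporter, set against a CMV-promoter reporter, two days after silencing single genes in TC32 Ewing sarcoma cells. Each siRNA was applied at 20 nM. A z-score of the log NR0B1-over-CMV signal, less the median of siRNAs with the same seed; more negative means a stronger specific loss of the NR0B1 reporter.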

This is part of the screen; most of the strongest results are not listed here. Sequences are the guide (antisense) strand, without overhang.

For UAACGCAUGAGUCAAAAAC against KIAA0355 the result was seed-corrected z-score 0.06808.
For UAGACAAACAUGAAACGGC against TRPV1 the result was seed-corrected z-score -0.7561.
For UUCAGGAAAGUUGCCCUUG against CBARP the result was seed-corrected z-score -0.6987.
For UUACUACCUCGGAAUAUCC against TOMM7 the result was seed-corrected z-score 0.5236.
For UAUGCAUGAACCCUGCUCC against SLC39A2 the result was seed-corrected z-score -0.1032.
For UUUGGAGCGGGAAGUGAGG against LINC01346 the result was seed-corrected z-score -0.1455.
For UUGAUUGCAACAUAACUCC against AK9 the result was seed-corrected z-score 1.646.
For UACAGACUCAGUAUUCAAC against OBFC1 the result was seed-corrected z-score 0.04707.
For UUCAUAUCUAGGUAAGAGC against CEP126 the result was seed-corrected z-score -0.9737.
For UGUAAGAUAGGGCAAAUUG against HSPA9 the result was seed-corrected z-score -1.77.
For ACCGGUUCCACCUUGUGCU against CYGB the result was seed-corrected z-score 0.05429.
For UACUGUCUCAAACAGGACC against AP1G2 the result was seed-corrected z-score 0.6272.
For UGACGUUUGGGUAGUACCG against APOBEC3D the result was seed-corrected z-score -0.4293.
For UGCUGGAUUUUUCUGAUGC against MRGBP the result was seed-corrected z-score -0.9768.
For UCCUCUACAGUUUUGGUCC against CNNM4 the result was seed-corrected z-score 0.4448.
For AAAGGUCUCAUUGAACUGG against COX4I2 the result was seed-corrected z-score 0.8573.
For UGUGCUUUCGGCUUAAACC against KCNAB3 the result was seed-corrected z-score -0.1555.
For UUUGGUUAAUCGCUGCUCU against ENY2 the result was seed-corrected z-score -1.243.
For UUAGCUUCAUCCUCCGUGU against CYC1 the result was seed-corrected z-score -0.4686.
For GUUUAUAGAACUUACAUCU against WHAMMP2 the result was seed-corrected z-score 2.606.
For AUCUUGUGGAGUUAUAUUC against ST8SIA5 the result was seed-corrected z-score 0.2686.
For UACGGUUCUUGCAUCUCGC against GNAT3 the result was seed-corrected z-score 0.7495.
For UGCUCAUCCAUUGACAGUG against RBMS2 the result was seed-corrected z-score 0.2824.
For UUAGCAUAUGGAAUGACUG against HPS3 the result was seed-corrected z-score -0.05058.
For UAAAUUUAAAUAUCCAGCA against FAM89B the result was seed-corrected z-score 1.232.
For AUAGUGAUCGGUGGACUCG against BRINP3 the result was seed-corrected z-score 0.07118.
For UAUUGCGCUAGACUGGUAC against BMX the result was seed-corrected z-score -0.2188.
For UUAUGAAAAACUUUGACAC against ZNF718 the result was seed-corrected z-score -0.4125.
For UUUCCAUCCAGGCUAUGAC against CPXM2 the result was seed-corrected z-score -0.4469.
For AUUCUUUGAGUCACCUUCU against WFDC1 the result was seed-corrected z-score 0.1846.
For UACUUUUCCUAGAUCAUCG against ACOT6 the result was seed-corrected z-score 0.8147.
For UAUGGGAUUCGAGCCUGGG against PLD3 the result was seed-corrected z-score 0.4318.
For UUCUUAACAGUGACCCACG against CPXM2 the result was seed-corrected z-score 0.06901.
For AUCUGGGCAAGGAAGUAGC against LRRC14 the result was seed-corrected z-score 1.157.
For AAUGCGAUCAGUAAUAACC against ITM2B the result was seed-corrected z-score 0.597.
For AAACUAUCAAAAUCCAGAG against PPARGC1A the result was seed-corrected z-score -0.1617.
For UUCGUGAAGCGGACAAUGC against HCN4 the result was seed-corrected z-score 0.1039.
For UAUAGUAGCGAUGAGAAGC against MBD4 the result was seed-corrected z-score 0.7573.

Repeated from the top, 5 entries:

strand,target gene,seed-corrected z-score
UAACGCAUGAGUCAAAAAC,KIAA0355,0.06808
UAGACAAACAUGAAACGGC,TRPV1,-0.7561
UUCAGGAAAGUUGCCCUUG,CBARP,-0.6987
UUACUACCUCGGAAUAUCC,TOMM7,0.5236
UAUGCAUGAACCCUGCUCC,SLC39A2,-0.1032